# Test results taken from patent publication US20260201023A1.
# No constants are given. Whether binding was seen depends on the method and setting. Some entries that bind do so weakly or less than the wild type.
# T1: very short MTBR-tau243 fragments (human)
# T1 sequence (peptide): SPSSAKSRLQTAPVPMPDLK
# Legend:
# [1] = target: T1, very short MTBR-tau243 fragments (human); assay: immunoprecipitation from CSF, LC/MS
# [2] = target: T1, very short MTBR-tau243 fragments (human); assay: second immunoprecipitation step from CSF, LC/MS
binder,measurement,setting,value
"HJ32.11 (antibody, V domains shown) VH: EVQLQQSGAELVKPGASVRLSCTGSGLNIKDYFIHWVKQRTKQGLEWIGRIDPEDDEIKYAPKFQGKATITADTSSNTAYLHLISLTSEDTAVYYCGWDFNYWGQGTTLTVSS VL: DVLMTQTPLSLPVSLGDQVSISCRSSQSIVHSNGNTYLEWYLQKPGQSPKLLIYKVSNRFSGVPDRFSGSGSGTDFTLKISRVEAEDLGVYYCFQGLHVPYTFGGGTKLEI",binding,[1],binds
same,binding,[2],binds
